# Source: PubChem BioAssay AID1347423 (Functional Genomics Laboratory (NCATS/FGL), 2020)
# Out of some 52,000 sequences screened, about 210 (0.4%) were called active.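 The calls were made as follows: active = gene whose silencing raises cell survival under the drug, median off-target-corrected z-score across its silencing RNAs 2 or more; inactive = the rest.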 This is one part of the list.
# Test: Resistance to Poly (ADP-Ribose) Polymerase inhibitor: Gene Identification via Genome-wide siRNA Screen
# Conditions: mouse BRCA2 R2336H ES cells, olaparib, CellTiter-Glo viability; active compounds read high
# Outline: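 Mouse BRCA2 R2336H ES cells were reverse-transfected with siRNA (20 nM final), treated at 48 h with 500 nM olaparib, and read by CellTiter-Glo after 72 h. Scores: MAD-based z per siRNA, median per gene, seed off-target correction.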
row,Sequence,z-score
1,CCUCCAGGUGUUGAUCUGUTT against Btbd11,inactive: -0.0554
2,GGAGACUUGAAAACAAUUATT against Brd2,inactive: -0.82
3,GGUCCUGGACAAAGUGUUUTT against Tubgcp5,inactive: 0.63
4,GGUCAAAAUAGAAGGAGUATT against Klhl4,inactive: 2.64
5,GCUUCACGUUGGCUUUCCUTT against V2r1,inactive: -0.183
6,GCCAAGAAAGAUCAUUGACTT against Mlstd1,inactive: -0.494
7,UUGAGAGGCAAAGAGUGGUTT against Olfr1166,inactive: 0.622
8,CGAGCUGUUAGAAUUCAGATT against Gababrbp,inactive: 0.354
9,GGGUGAGCCUUCCUGAAAATT against Pcdhgb4,inactive: -3.17
10,CCUACAAGACUGUCUCUGGTT against Atp6v1b2,inactive: -2.46
11,GGUCAUGAGUAUUUUGACUTT against 4930429H24Rik,inactive: 0.362
12,GGCAAUAUCCAGGAGACAGTT against 1810036H07Rik,inactive: 1.81
13,GGCUGAGAAACUGGAUGAATT against Rem1,inactive: -1.65
14,GGUUUUGAGCAUUAAUGUGTT against Dhrs4,inactive: -0.282
15,GGCCUUUUCCAUAAACUUUTT against BC013672,inactive: -0.0686
16,CCCAGUCACAAUAUUUUCUTT against Ssbp1,inactive: 0.538
17,GGAUGCUAUUUUUGAAACCTT against Wins2,inactive: 0.815
18,GCCGACAUCUCCAAGAGAUTT against Cdk5rap3,inactive: -1.07
19,CCACUCUCACCAGCUUUAUTT against Tm7sf2,inactive: -0.134
20,GGAGUUGGAGGAAAGAAUUTT against Csh2,inactive: -0.327
21,GCCGGGCUCGCCCUGCUCCTT against MGC41689,inactive: 0.858
22,GGAACCACUGCUAGCCAGATT against Serpinb6a,inactive: -1.9
23,GCCCUGUUUAGAACCAUCATT against Gna14,inactive: -0.0577
24,CCAAGUACUACAAUUUCCATT against Oasl2,inactive: 0.094
25,GGAGAUAGAGUUACCUUUGTT against Nbn,inactive: -1.59
26,GGUUCUCAGAGCCAGAAAUTT against Dtprp,inactive: -0.413
27,GGAGAUUUUCCAAAAUGUGTT against Proc,inactive: 0.802
28,GGUGGCUUCUGCUUAUUUCTT against Slc13a1,inactive: 0.721
29,GGCCGAAUGGGUCUCUACATT against Gabrr2,inactive: -3.09

# A second format for some results above.
row	Sequence	z-score
8	CGAGCUGUUAGAAUUCAGATT against Gababrbp	inactive: 0.354
18	GCCGACAUCUCCAAGAGAUTT against Cdk5rap3	inactive: -1.07
